Reference: the supplement of paper PMC10689618
Where a name gives a salt, the structure may show the parent alone. This is one part of the list. Single values are uncertain, as repeats are few or missing.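 Primary human fetal astrocytes engulfed labelled rat cortical synaptosomes, measured as a red/green ratio corrected for calcein live-cell signal and scaled to the plate median. Toxicity meant calcein falling over 30%; decreased phagocytosis meant below 70% of median above 5 µM.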

Columns and labels:
Human fetal astrocytes [1] = assay: loss of total cells relative to no-compound high-control median (toxicity); higher = more toxic (fewer cells); conditions: 24 h
Human fetal astrocytes [2] = assay: synaptosome phagocytosis (pHrodo/calcein intensity ratio) relative to plate median of data wells; higher = more phagocytosis; conditions: 24 h

| SMILES | loss of total cells (Human fetal astrocytes [1]; 1.39 µM) [%] | loss of total cells (Human fetal astrocytes [1]; 2.78 µM) [%] | loss of total cells (Human fetal astrocytes [1]; 5.56 µM) [%] | loss of total cells (Human fetal astrocytes [1]; 11.11 µM) [%] | loss of total cells (Human fetal astrocytes [1]; 22.22 µM) [%] | synaptosome phagocytosis (Human fetal astrocytes [2]; 1.39 µM) [%] | synaptosome phagocytosis (Human fetal astrocytes [2]; 2.78 µM) [%] | synaptosome phagocytosis (Human fetal astrocytes [2]; 5.56 µM) [%] | synaptosome phagocytosis (Human fetal astrocytes [2]; 11.11 µM) [%] | synaptosome phagocytosis (Human fetal astrocytes [2]; 22.22 µM) [%] |
| --- | --- | --- | --- | --- | --- | --- | --- | --- | --- | --- |
| CCc1nc(N)nc(N)c1-c1ccc(Cl)cc1 | 13.4 | -5.1 | -12.5 | 2.6 | -0.9 | 120 | 118 | 110 | 98.3 | 114 |
| O.O.O.O.O=C([O-])CC(O)(CC(=O)[O-])C(=O)[O-].[Li+].[Li+].[Li+] | 19.4 | -27.8 | 5.6 | -6.2 | 5.9 | 110 | 103 | 82.1 | 85.3 | 120 |
| CCCCC(CC)CN=C(N)N=C(N)NCCCCCCNC(N)=NC(N)=NCC(CC)CCCC (stereo not given) | -10.7 | -4.7 | 9.5 | 36.5 | 59.3 | 97.7 | 101 | 86.5 | 58.5 | 3.6 |
| O=C(O)c1ccc2c(c1)OCO2 | -9 | -13.4 | -6.6 | 10.8 | 28.1 | 98.3 | 103 | 141 | 131 | 96.4 |
| CC(=O)OCC(=O)[C@@]12OC(C)(C)O[C@@H]1C[C@H]1[C@@H]3C[C@H](F)C4=CC(=O)C=C[C@]4(C)[C@@]3(F)[C@@H](O)C[C@@]12C | 3.3 | -25.4 | -9.8 | -28 | -1.5 | 105 | 97.7 | 97.1 | 126 | 122 |
| Cc1cc(O)cc(=O)o1 | 10.5 | -6.1 | 15.2 | 3.8 | -6.1 | 107 | 98.6 | 122 | 100 | 107 |
| COc1cc(-c2coc3cc(O)c(OC)c(O)c3c2=O)cc(O)c1OC | -10.5 | -8.6 | 38.9 | 12.9 | 35.2 | 101 | 104 | 148 | 109 | 150 |
| COc1cc(O)c2c(=O)cc(-c3ccc(OC)c(-c4c(O)cc(O)c5c(=O)cc(-c6ccc(O)cc6)oc45)c3)oc2c1 [GINKGETIN, K salt] | -6.2 | -8.6 | 30.5 | 45.8 | 3.3 | 114 | 107 | 96.8 | 155 | 127 |
| NC(=O)NC(=O)Cc1ccccc1 | 11.6 | -17.4 | 8.7 | -11.7 | 30 | 107 | 110 | 102 | 87 | 132 |
| CC(C)c1nc(N(C)S(C)(=O)=O)nc(-c2ccc(F)cc2)c1/C=C/[C@@H](O)C[C@@H](O)CC(=O)O | -39.5 | -27.8 | 12.4 | 2.3 | 7.2 | 120 | 82 | 91 | 86.9 | 90.5 |
| CS(=O)(=O)c1ccc(C2=C(c3ccccc3)C(=O)OC2)cc1 | 38.7 | -21.4 | -6.2 | 18.7 | 4.7 | 159 | 110 | 117 | 116 | 112 |
| CC[C@H]1OC(=O)[C@H](C)[C@@H](O[C@H]2C[C@@](C)(OC)[C@@H](O)[C@H](C)O2)[C@H](C)[C@@H](O[C@@H]2O[C@H](C)C[C@H](N(C)C)[C@H]2O)[C@](C)(O)C[C@@H](C)/C(=N\OCOCCOC)[C@H](C)[C@@H](O)[C@]1(C)O | 5.6 | -27 | 5 | 18 | 0.9 | 143 | 119 | 108 | 143 | 114 |
| O=C(O)/C=C/C=C/c1ccccc1 | -18.5 | 12 | 30.5 | 4.5 | -19.6 | 98.6 | 119 | 149 | 97.7 | 81.5 |
| Cc1ccccc1N1C(=O)c2cc(S(N)(=O)=O)c(Cl)cc2NC1C (stereo not given) | 38 | 9.3 | -4.6 | 45.2 | 18.1 | 143 | 83.8 | 119 | 118 | 140 |
| COc1ccc(-c2c(O)c3c(OC)c4c(cc3oc2=O)OC(C)(C)C=C4)cc1 | 31.5 | 17.9 | 0.8 | 35.5 | -0.4 | 127 | 108 | 81.4 | 143 | 116 |
| CC1(C)O[C@@H]2C[C@H]3[C@@H]4CCC5=CC(=O)C=C[C@]5(C)[C@@]4(F)[C@@H](O)C[C@]3(C)[C@]2(C(=O)CO)O1 | -18.7 | -18 | -34.8 | -19.9 | -21.6 | 120 | 103 | 128 | 97.6 | 89.8 |
| Cc1cccc(C(=O)O)c1O | -9.7 | 17 | 7.2 | 2.1 | 18.9 | 114 | 96.8 | 105 | 120 | 161 |
| O=C(O)[C@H](O)[C@@](O)(Cc1ccc(O)cc1)C(=O)O | 27.9 | 9.3 | -29 | 25.2 | 34.4 | 151 | 112 | 86.6 | 91.1 | 143 |
| CCC(C)C(=O)OC1[C@@H]2CC3=C4CC(=O)O[C@@H](c5ccoc5)[C@]4(C)CCC3[C@@](C)(C2=O)[C@@H](CC(=O)OC)C1(C)C (stereo not given in full) | 9.7 | -0.4 | 16.7 | 1.3 | 6.8 | 82.7 | 97 | 101 | 94.5 | 150 |

Ordered by SMILES length (ascending): 3 of the compounds above.

| SMILES | loss of total cells (Human fetal astrocytes [1]; 1.39 µM) [%] | loss of total cells (Human fetal astrocytes [1]; 2.78 µM) [%] | loss of total cells (Human fetal astrocytes [1]; 5.56 µM) [%] | loss of total cells (Human fetal astrocytes [1]; 11.11 µM) [%] | loss of total cells (Human fetal astrocytes [1]; 22.22 µM) [%] | synaptosome phagocytosis (Human fetal astrocytes [2]; 1.39 µM) [%] | synaptosome phagocytosis (Human fetal astrocytes [2]; 2.78 µM) [%] | synaptosome phagocytosis (Human fetal astrocytes [2]; 5.56 µM) [%] | synaptosome phagocytosis (Human fetal astrocytes [2]; 11.11 µM) [%] | synaptosome phagocytosis (Human fetal astrocytes [2]; 22.22 µM) [%] |
| --- | --- | --- | --- | --- | --- | --- | --- | --- | --- | --- |
| Cc1cc(O)cc(=O)o1 | 10.5 | -6.1 | 15.2 | 3.8 | -6.1 | 107 | 98.6 | 122 | 100 | 107 |
| Cc1ccccc1N1C(=O)c2cc(S(N)(=O)=O)c(Cl)cc2NC1C (stereo not given) | 38 | 9.3 | -4.6 | 45.2 | 18.1 | 143 | 83.8 | 119 | 118 | 140 |
| CCC(C)C(=O)OC1[C@@H]2CC3=C4CC(=O)O[C@@H](c5ccoc5)[C@]4(C)CCC3[C@@](C)(C2=O)[C@@H](CC(=O)OC)C1(C)C (stereo not given in full) | 9.7 | -0.4 | 16.7 | 1.3 | 6.8 | 82.7 | 97 | 101 | 94.5 | 150 |

Next part

| SMILES | loss of total cells (Human fetal astrocytes [1]; 1.39 µM) [%] | loss of total cells (Human fetal astrocytes [1]; 2.78 µM) [%] | loss of total cells (Human fetal astrocytes [1]; 5.56 µM) [%] | loss of total cells (Human fetal astrocytes [1]; 11.11 µM) [%] | loss of total cells (Human fetal astrocytes [1]; 22.22 µM) [%] | synaptosome phagocytosis (Human fetal astrocytes [2]; 1.39 µM) [%] | synaptosome phagocytosis (Human fetal astrocytes [2]; 2.78 µM) [%] | synaptosome phagocytosis (Human fetal astrocytes [2]; 5.56 µM) [%] | synaptosome phagocytosis (Human fetal astrocytes [2]; 11.11 µM) [%] | synaptosome phagocytosis (Human fetal astrocytes [2]; 22.22 µM) [%] |
| --- | --- | --- | --- | --- | --- | --- | --- | --- | --- | --- |
| CC(=O)O[C@@H]1CC2C(C)(CC[C@H](O)C2(C)C)C2CC[C@]3(C)C(=CC(=O)O[C@H]3c3ccoc3)C21C (stereo partly drawn) [3beta-HYDROXYDEOXODIHYDRODEOXYGEDUNIN] | 27.2 | 3.3 | 6.1 | 26.5 | 0.4 | 40.1 | 45.9 | 17.8 | 10.6 | 39.7 |
| CCCc1nc(C)c2c(O)nc(-c3cc(S(=O)(=O)N4CCN(CC)CC4)ccc3OCC)nn12 | 0.8 | -18.6 | 14.7 | 10.9 | 0.6 | 82.3 | 93.6 | 108 | 66.2 | 96.3 |
| COc1ccc(OC)c(C(O)CNC(=O)CN)c1 (stereo not given) | 29.8 | -25.4 | -6.2 | 38.4 | 12.1 | 157 | 122 | 114 | 149 | 115 |
| Oc1cc2c(cc1O)C1c3ccc(O)c(O)c3OCC1(O)C2 (stereo not given) | -18.5 | -4.7 | 30.5 | 37.4 | 30.7 | 96.1 | 116 | 106 | 80.5 | 95.6 |
| Cc1cc2c(cc1S(N)(=O)=O)S(=O)(=O)CCC2 | 29.2 | 24.2 | 23.2 | 3.8 | 24.2 | 102 | 148 | 149 | 114 | 172 |
| C[C@@H]1CC[C@@]2(OC1)O[C@H]1C[C@H]3[C@@H]4CC[C@H]5C[C@@H](O)CC[C@]5(C)[C@H]4CC(=O)[C@]3(C)[C@H]1[C@@H]2C | -6.1 | 19.9 | -2.9 | -6.3 | 20.5 | 88.7 | 129 | 85.6 | 106 | 137 |
| CC(=O)Nc1ccc(OC(=O)c2ccccc2O)cc1 | 14.8 | 16.2 | 6.5 | 2.9 | 22 | 93.1 | 126 | 104 | 114 | 67.7 |
| CCOC(=O)CCCCCCCCCCCCC1C=CCC1 (stereo not given) | -4.9 | -3.2 | 8.8 | 24.3 | 13.3 | 122 | 102 | 126 | 151 | 118 |
| O=C1CC(c2ccc(O)cc2)Oc2ccccc21 (stereo not given) | 0.8 | 9.7 | 18.3 | 10.1 | 9.6 | 36.1 | 12.3 | 28.8 | 36.6 | 23.7 |
| Clc1ccc(COC(Cn2ccnc2)c2ccc(Cl)cc2Cl)c(Cl)c1 (stereo not given) | 13.9 | -3.1 | 0.7 | 100 | 105 | 65.5 | 91.7 | 56.7 | 0 | 0 |
| CCOC(=O)c1c(C)cc(O)cc1O | -4 | 5.3 | 43.5 | 1.9 | 0.4 | 79.5 | 106 | 138 | 85.7 | 100 |
| COc1ccc(-c2oc3c(CC=C(C)C)c(O[C@@H]4O[C@H](CO)[C@@H](O)[C@H](O)[C@H]4O)cc(O)c3c(=O)c2O[C@@H]2O[C@@H](C)[C@H](O)[C@@H](O)[C@H]2O)cc1 | -20.5 | 1.8 | -16.1 | 8.8 | 3.7 | 78.7 | 126 | 70.8 | 119 | 83 |
| CN1CCC(OC(c2ccccc2)c2ccccc2)CC1 [4-(benzhydryloxy)-1-methylpiperidine] | -8.6 | -11.9 | 0 | -7.2 | 22.2 | 109 | 90.1 | 91.6 | 86.9 | 84.5 |
| COC(=O)[C@@H]1OC(=O)C2OC23[C@@]1(C)CCC1[C@]2(C)C(C[C@H](O)[C@]13C)C(C)(C)[C@H](OC(C)=O)C[C@@H]2OC(C)=O (stereo partly drawn) [7beta-HYDROXY-7-DESACETOXYKHIVORINIC ACID, METHYL ESTER] | 17 | -0.7 | 43.5 | 0 | 9.3 | 118 | 83.4 | 123 | 97.5 | 123 |
| O=c1c(O)c(-c2ccccc2)oc2ccccc12 | -21.3 | -12.6 | -0.7 | 21.6 | 8.1 | 83.8 | 77.4 | 98.6 | 69.1 | 96 |
| C[n+]1cc2c3c(ccc2c2ccc4cc5c(cc4c21)OCO5)OCO3 | -19.9 | 11.3 | 3.9 | 46.1 | 67.4 | 72.9 | 69 | 47.4 | 29 | 2.4 |
| CN[C@@H]1[C@@H](O)[C@@H](O[C@@H]2[C@@H](O)[C@H](O[C@H]3OC(CN)=CC[C@H]3N)[C@@H](N)C[C@H]2N)OC[C@]1(C)O | 2.1 | -25.4 | -5.6 | 22.8 | -41.6 | 96.6 | 134 | 103 | 105 | 106 |
| CCCCOc1ccc(C(=O)CCN2CCCCC2)cc1 | 14.5 | -7.1 | 16 | 41.2 | 73.3 | 90.9 | 80.5 | 82.1 | 48.2 | 65.4 |
